Measured values from patent US9210914B2, “Method for training honeybees to respond to olfactory stimuli and enhancement of memory retention therein” (LOS ALAMOS NATIONAL SECURITY, LLC, priority 2011, dated 2015).
Some of these results come from one statement about several compounds together.

Tested on: honeybees
Experiment: Long-term memory retention of conditioned PER response in honeybees fed supplements
Assay type: in vivo, Apis mellifera
Details: administered separately
Description: The bees were brought back to the lab and split into three groups. One control group was fed 40% sugar water in a trough or on parafilm in cage. […] The second and third experimental groups were given 40% sugar water spiked with the cocktail. All honeybees were handled the same way. The mixture was to the honeybees from the beginning of capture, through training and until the completion of the experiment.
Long-term memory enhancements using PKA and caffeine were also tested. […] Approximately 3.9 units PKA/bee (1 μl) and 15.6 units PKA/bee (4 μl) were administrated.

| Compound | duration of increased long-term memory |
| --- | --- |
| protein kinase A [PKA] | ≥ 3 days post training |
| Cn1c(=O)c2c(ncn2C)n(C)c1=O [Caffeine, caffeine] | ≥ 3 days post training |
